Source: the supplement of paper PMC10849652
The list shows a part of the results.

Sequences of proteins named here, by UniProt entry; tags and fusion partners are left off. A change or cut given only in a name is not applied to a line headed by its entry.
UniProt P78345: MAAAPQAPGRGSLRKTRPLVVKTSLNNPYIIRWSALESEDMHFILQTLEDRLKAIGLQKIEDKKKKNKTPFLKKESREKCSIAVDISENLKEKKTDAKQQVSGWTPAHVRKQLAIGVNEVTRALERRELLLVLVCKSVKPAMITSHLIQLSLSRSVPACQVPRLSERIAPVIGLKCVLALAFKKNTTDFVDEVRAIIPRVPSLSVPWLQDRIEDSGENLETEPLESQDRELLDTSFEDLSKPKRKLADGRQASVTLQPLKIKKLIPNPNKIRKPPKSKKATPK
UniProt P23443: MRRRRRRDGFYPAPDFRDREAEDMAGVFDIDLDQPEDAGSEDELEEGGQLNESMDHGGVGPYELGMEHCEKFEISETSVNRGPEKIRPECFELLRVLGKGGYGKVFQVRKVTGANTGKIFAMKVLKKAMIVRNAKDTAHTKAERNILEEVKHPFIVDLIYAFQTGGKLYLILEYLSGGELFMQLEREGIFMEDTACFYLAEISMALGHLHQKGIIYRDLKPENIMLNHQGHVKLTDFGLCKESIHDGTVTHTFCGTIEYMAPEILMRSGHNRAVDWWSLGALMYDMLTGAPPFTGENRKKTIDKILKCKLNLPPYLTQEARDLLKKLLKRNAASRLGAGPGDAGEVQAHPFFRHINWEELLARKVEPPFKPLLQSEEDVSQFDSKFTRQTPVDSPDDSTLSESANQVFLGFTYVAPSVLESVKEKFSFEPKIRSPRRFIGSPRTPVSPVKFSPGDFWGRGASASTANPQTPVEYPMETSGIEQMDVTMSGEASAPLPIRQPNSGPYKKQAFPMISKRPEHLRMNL
UniProt Q96S38: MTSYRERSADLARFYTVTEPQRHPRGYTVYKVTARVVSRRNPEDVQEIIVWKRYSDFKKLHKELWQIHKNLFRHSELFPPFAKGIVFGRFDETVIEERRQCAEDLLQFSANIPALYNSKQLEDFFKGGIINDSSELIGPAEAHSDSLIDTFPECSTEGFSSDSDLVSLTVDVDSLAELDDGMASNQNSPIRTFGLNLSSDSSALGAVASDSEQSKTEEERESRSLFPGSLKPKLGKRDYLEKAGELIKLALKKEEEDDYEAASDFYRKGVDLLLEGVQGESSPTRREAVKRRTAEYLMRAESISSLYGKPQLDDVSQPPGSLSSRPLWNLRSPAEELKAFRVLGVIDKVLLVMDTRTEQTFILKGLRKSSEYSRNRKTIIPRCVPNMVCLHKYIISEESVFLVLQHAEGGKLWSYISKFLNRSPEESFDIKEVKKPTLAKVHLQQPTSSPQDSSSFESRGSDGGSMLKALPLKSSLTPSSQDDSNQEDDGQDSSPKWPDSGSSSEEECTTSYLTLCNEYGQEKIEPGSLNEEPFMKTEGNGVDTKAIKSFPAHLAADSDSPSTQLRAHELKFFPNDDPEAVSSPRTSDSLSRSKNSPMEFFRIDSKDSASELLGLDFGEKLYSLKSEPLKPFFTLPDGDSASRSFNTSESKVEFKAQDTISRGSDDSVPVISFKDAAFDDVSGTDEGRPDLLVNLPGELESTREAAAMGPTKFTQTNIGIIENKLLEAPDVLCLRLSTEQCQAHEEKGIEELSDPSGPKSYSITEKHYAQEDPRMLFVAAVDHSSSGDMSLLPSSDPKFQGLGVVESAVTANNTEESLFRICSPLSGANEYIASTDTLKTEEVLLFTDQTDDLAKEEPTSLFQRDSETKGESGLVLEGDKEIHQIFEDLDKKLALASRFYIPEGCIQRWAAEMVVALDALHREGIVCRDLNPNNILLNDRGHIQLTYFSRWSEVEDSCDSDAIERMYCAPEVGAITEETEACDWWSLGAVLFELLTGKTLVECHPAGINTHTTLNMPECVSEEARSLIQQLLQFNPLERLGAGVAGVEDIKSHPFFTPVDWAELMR
UniProt Q8IZ73: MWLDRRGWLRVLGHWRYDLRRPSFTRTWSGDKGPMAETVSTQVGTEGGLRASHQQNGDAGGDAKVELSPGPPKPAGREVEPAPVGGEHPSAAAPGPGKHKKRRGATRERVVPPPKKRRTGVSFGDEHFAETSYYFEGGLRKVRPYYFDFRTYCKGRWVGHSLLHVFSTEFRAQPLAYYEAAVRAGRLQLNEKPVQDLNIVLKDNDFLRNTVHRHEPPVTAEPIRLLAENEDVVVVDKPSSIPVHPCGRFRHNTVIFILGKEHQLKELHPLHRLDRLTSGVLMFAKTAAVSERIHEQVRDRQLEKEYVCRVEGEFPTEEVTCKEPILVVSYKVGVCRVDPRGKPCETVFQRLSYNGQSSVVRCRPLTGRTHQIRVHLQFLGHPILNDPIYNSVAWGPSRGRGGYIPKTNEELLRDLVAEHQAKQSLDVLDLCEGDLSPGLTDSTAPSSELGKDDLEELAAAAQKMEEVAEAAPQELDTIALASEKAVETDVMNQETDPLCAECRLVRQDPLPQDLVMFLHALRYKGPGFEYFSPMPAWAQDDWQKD
UniProt Q8TA86: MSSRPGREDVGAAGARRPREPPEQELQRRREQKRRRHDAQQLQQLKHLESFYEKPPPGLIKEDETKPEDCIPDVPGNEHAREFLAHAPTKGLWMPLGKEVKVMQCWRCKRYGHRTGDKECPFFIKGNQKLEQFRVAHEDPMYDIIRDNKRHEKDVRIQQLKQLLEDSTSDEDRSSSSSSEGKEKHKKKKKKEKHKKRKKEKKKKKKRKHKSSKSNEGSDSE
UniProt Q9UBF6, whole entry, looked up: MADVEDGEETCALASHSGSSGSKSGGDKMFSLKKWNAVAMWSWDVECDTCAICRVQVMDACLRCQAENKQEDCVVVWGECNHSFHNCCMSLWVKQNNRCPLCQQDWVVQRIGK
UniProt Q7L523, whole entry, looked up: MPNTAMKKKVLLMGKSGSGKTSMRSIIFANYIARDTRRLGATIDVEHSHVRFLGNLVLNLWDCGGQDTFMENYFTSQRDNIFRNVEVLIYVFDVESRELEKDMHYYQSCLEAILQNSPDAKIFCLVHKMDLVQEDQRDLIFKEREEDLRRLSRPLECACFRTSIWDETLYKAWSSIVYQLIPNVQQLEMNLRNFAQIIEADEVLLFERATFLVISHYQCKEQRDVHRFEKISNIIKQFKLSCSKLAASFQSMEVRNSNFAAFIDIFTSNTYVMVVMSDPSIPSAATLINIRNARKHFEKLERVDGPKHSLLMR
UniProt P05386, whole entry, looked up: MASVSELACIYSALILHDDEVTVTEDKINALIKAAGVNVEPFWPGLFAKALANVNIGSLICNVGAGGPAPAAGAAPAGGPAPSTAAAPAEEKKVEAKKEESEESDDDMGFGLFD

Tests used:
Assay in all cases: log2 fold change, soluble protein after heating vs DMSO (PISA); higher = thermal stabilisation; K562 cells, 10 uM, 30 min; active = over 0.2 and 3.5 SD of the protein, either way, in both replicates (recomputed)
[1] = compound: COC1=CC=C(C=C1)CN2C=CC3=C2C=C(C=C3)C(=O)NO
Outline: (§1)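 Values are thermal stability changes relative to control samples and are taken from duplicates. They are stated as log2 fold changes. Before quantification by TMTpro 16plex LC-MS/MS with equalised channel sums, K562 cells at 2×10^6 cells/mL were treated with 10 μM compound for 30 min, heated in aliquots for 3 min across 48°C-58°C, pooled, extracted in PBS with 0.5% NP-40 at 4°C, and centrifuged at 21,000xg for 90 min to give the soluble supernatant.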

[2] = compound: CON(C)C(=O)N1N=C(c2cc(F)ccc2F)S[C@@]1(CCCN)c1ccccc1 [filanesib]
Outline: as §1

[3] = compound: CO[C@H]1C[C@@H]2CC[C@@H](C)[C@@](O)(O2)C(=O)C(=O)N2CCCC[C@H]2C(=O)O[C@H]([C@H](C)C[C@@H]2CC[C@H](n3cnnn3)[C@H](OC)C2)CC(=O)[C@H](C)/C=C(\C)[C@@H](O)[C@@H](OC)C(=O)[C@H](C)C[C@H](C)/C=C/C=C/C=C/1C [zotarolimus]
Outline: as §1

[4] = compound: COc1cc(C(=O)O)ccc1NC(=O)[C@@H]1N[C@@H](CC(C)(C)C)[C@](C#N)(c2ccc(Cl)cc2F)[C@H]1c1cccc(Cl)c1F [idasanutlin]
Outline: as §1

[5] = compound: COc1cc(Nc2ncc3c(n2)-c2ccc(Cl)cc2C(c2c(F)cccc2OC)=NC3)ccc1C(=O)O [alisertib]
Outline: as §1

[6] = compound: COc1cc2nc(-c3cc(F)ccc3O)nc(N[C@@H]3CNC[C@H]3C(C)(C)O)c2cc1OC
Outline: as §1

[7] = compound: COc1cc2ncnc(Nc3ccc(F)c(Cl)c3)c2cc1OCCCN1CCOCC1 [gefitinib]
Outline: as §1

[8] = compound: COc1cccc2cc(-c3nc([C@H]4CC[C@H](C(=O)O)CC4)n4ncnc(N)c34)[nH]c12
Outline: as §1

[9] = compound: CS(=O)(=O)CCNCc1ccc(-c2ccc3ncnc(Nc4ccc(OCc5cccc(F)c5)c(Cl)c4)c3c2)o1 [lapatinib]
Outline: as §1

[10] = compound: CS(=O)(=O)N1CCN(Cc2cc3nc(-c4cccc5[nH]ncc45)nc(N4CCOCC4)c3s2)CC1 [pictilisib]
Outline: as §1

[11] = compound: CS(=O)(=O)c1ccc(-c2cnc(N)c(C(=O)Nc3ccccc3)n2)cc1
Outline: as §1

[12] = compound: C[C@@H](Oc1cc(-c2cnn(C3CCNCC3)c2)cnc1N)c1c(Cl)ccc(F)c1Cl [crizotinib]
Outline: as §1

[13] = compound: C[C@@H]1COCCN1C2=NC(=NC(=C2)C3(CC3)S(=O)(=O)C)C4=C5C=CNC5=CC=C4
Outline: as §1

[14] = compound: C[C@H](C1=CC=C(C=C1)C(=O)NC2=C3C=CNC3=NC=C2)N
Outline: as §1

[15] = compound: C[C@H](Nc1ncnc2nc[nH]c12)c1cc2cccc(Cl)c2c(=O)n1-c1ccccc1 [duvelisib]
Outline: as §1

[16] = compound: Cc1cc(Nc2cc(CN3CCOCC3)c3nc(C)c(Cc4ccc(Cl)cc4F)n3n2)n[nH]1 [gandotinib]
Outline: as §1

[17] = compound: Cc1cc(Nc2cc(N3CCN(C)CC3)nc(Sc3ccc(NC(=O)C4CC4)cc3)n2)n[nH]1 [tozasertib]
Outline: as §1

[18] = compound: Cc1cc(SCc2sc(-c3ccc(C(F)(F)F)cc3)nc2C)ccc1OCC(=O)O
Outline: as §1

[19] = compound: Cc1ccc(-n2nc(C(C)(C)C)cc2NC(=O)Nc2ccc(OCCN3CCOCC3)c3ccccc23)cc1 [doramapimod]
Outline: as §1

[20] = compound: Cc1ccc(C(=O)N(CCCN)[C@@H](c2nc3cc(Cl)ccc3c(=O)n2Cc2ccccc2)C(C)C)cc1 [ispinesib]
Outline: as §1

Measured: log2 fold change

RPP38 (UniProt P78345)
inactive: [1] -0.033 | [2] 0.021 | [3] 0.011 | [4] 0.05 | [5] -0.092 | [6] 0 | [7] 0.005 | [8] -0.014 | [9] 0.01 | [10] -0.017 | [11] -0.02 | [12] 0.055 | [13] 0.073 | [14] 0.075 | [15] -0.008 | [16] 0.1 | [17] 0 | [18] -0.051 | [19] 0.057 | [20] 0.017

RPL7A (UniProt P62424)
inactive: [1] -0.115 | [2] 0.796 | [3] 0.107 | [4] 0.362 | [5] -0.188 | [6] -0.235 | [7] -0.036 | [8] -0.457 | [9] 0.319 | [10] -0.379 | [11] -0.086 | [12] 0.058 | [13] -1.25 | [14] 0.531 | [15] -0.362 | [16] 0.417 | [17] 0.048 | [18] 0.038 | [19] 0.318 | [20] -0.204

RPS6KB1 (UniProt P23443)
inactive: [1] 0.013 | [2] -0.067 | [3] 0.004 | [4] -0.114 | [5] -0.036 | [6] 0.041 | [7] -0.033 | [8] 0.01 | [9] -0.01 | [10] 0.013 | [11] 0 | [12] -0.109 | [13] 0.004 | [14] -0.009 | [15] 0 | [16] -0.151 | [17] -0.031 | [18] 0.039 | [19] -0.032 | [20] -0.041

RPS6KC1 (UniProt Q96S38)
inactive: [1] -0.156 | [2] -0.013 | [3] -0.055 | [4] 0 | [5] -0.012 | [6] -0.006 | [7] 0.038 | [8] 0.152 | [9] 0.01 | [10] -0.065 | [11] 0.052 | [12] 0.028 | [13] 0.04 | [14] -0.121 | [15] 0.206 | [16] 0.163 | [17] 0.01 | [18] 0.137 | [19] -0.014 | [20] -0.057

RPS7 (UniProt P62081)
inactive: [1] -0.065 | [2] 0.251 | [3] -0.031 | [4] 0.143 | [5] -0.123 | [6] -0.049 | [7] -0.063 | [8] -0.303 | [9] 0.157 | [10] -0.248 | [11] -0.114 | [12] 0.067 | [13] -0.542 | [14] 0.247 | [15] -0.133 | [16] 0.13 | [17] 0.029 | [18] 0.029 | [19] 0.215 | [20] -0.149

RPL6 (UniProt Q02878)
inactive: [1] -0.105 | [2] 0.762 | [3] 0.083 | [4] 0.317 | [5] -0.198 | [6] -0.163 | [7] -0.102 | [8] -0.48 | [9] 0.366 | [10] -0.155 | [11] -0.053 | [12] 0.077 | [13] -0.823 | [14] 0.698 | [15] -0.358 | [16] 0.45 | [17] 0.06 | [18] 0.066 | [19] 0.411 | [20] -0.328

RPL35A (UniProt P18077)
inactive: [1] -0.123 | [2] 0.857 | [3] -0.008 | [4] 0.342 | [5] -0.201 | [6] -0.136 | [7] -0.065 | [8] -0.423 | [9] 0.363 | [10] -0.204 | [11] -0.045 | [12] 0.155 | [13] -1.21 | [14] 0.689 | [15] -0.358 | [16] 0.571 | [17] 0.073 | [18] 0.035 | [19] 0.422 | [20] -0.296

Looked up one by one from the entries so far, 2 records:
RPS7 (UniProt P62081)
inactive: [1] -0.065 | [2] 0.251 | [3] -0.031 | [4] 0.143 | [5] -0.123 | [6] -0.049 | [7] -0.063 | [8] -0.303 | [9] 0.157 | [10] -0.248 | [11] -0.114 | [12] 0.067 | [13] -0.542 | [14] 0.247 | [15] -0.133 | [16] 0.13 | [17] 0.029 | [18] 0.029 | [19] 0.215 | [20] -0.149

RPL6 (UniProt Q02878)
inactive: [1] -0.105 | [2] 0.762 | [3] 0.083 | [4] 0.317 | [5] -0.198 | [6] -0.163 | [7] -0.102 | [8] -0.48 | [9] 0.366 | [10] -0.155 | [11] -0.053 | [12] 0.077 | [13] -0.823 | [14] 0.698 | [15] -0.358 | [16] 0.45 | [17] 0.06 | [18] 0.066 | [19] 0.411 | [20] -0.328

Next part:

RPS8 (UniProt P62241)
inactive: [1] -0.05 | [2] 0.403 | [3] 0.057 | [4] 0.154 | [5] -0.11 | [6] -0.19 | [7] -0.054 | [8] -0.235 | [9] 0.172 | [10] -0.243 | [11] -0.047 | [12] 0.061 | [13] -0.551 | [14] 0.333 | [15] -0.225 | [16] 0.378 | [17] 0.048 | [18] 0.015 | [19] 0.246 | [20] -0.099

RPL12 (UniProt P30050)
inactive: [1] -0.171 | [2] 0.669 | [3] -0.033 | [4] 0.292 | [5] -0.147 | [6] -0.188 | [7] -0.043 | [8] -0.371 | [9] 0.272 | [10] -0.232 | [11] -0.158 | [12] 0.156 | [13] -1.01 | [14] 0.537 | [15] -0.312 | [16] 0.408 | [17] 0.022 | [18] 0.053 | [19] 0.427 | [20] -0.279

RPUSD2 (UniProt Q8IZ73)
inactive: [1] 0.019 | [2] -0.019 | [3] 0.023 | [4] 0.008 | [5] -0.161 | [6] 0.043 | [7] 0.017 | [8] 0.008 | [9] 0.009 | [10] -0.005 | [11] 0.014 | [12] 0.009 | [13] 0.024 | [14] -0.034 | [15] 0.045 | [16] 0.026 | [17] -0.019 | [18] 0.03 | [19] 0.022 | [20] 0.021

RP9 (UniProt Q8TA86)
inactive: [1] -0.086 | [2] 0.309 | [3] 0.007 | [4] 0.117 | [5] 0.028 | [6] 0.003 | [7] -0.035 | [8] -0.054 | [9] -0.01 | [10] -0.069 | [11] 0.074 | [12] 0.084 | [13] -0.216 | [14] 0.262 | [15] -0.064 | [16] 0.302 | [17] 0.028 | [18] -0.017 | [19] 0.076 | [20] -0.094

RNF7 (UniProt Q9UBF6)
inactive: [1] 0.008 | [2] -0.023 | [3] 0.03 | [4] -0.062 | [5] 0.061 | [6] -0.013 | [7] -0.013 | [8] -0.056 | [9] 0.057 | [10] -0.029 | [11] -0.011 | [12] 0.113 | [13] 0.033 | [14] 0.016 | [15] 0.049 | [16] 0.027 | [17] -0.06 | [18] -0.051 | [19] 0.025 | [20] 0.027

RPL26L1 (UniProt Q9UNX3)
inactive: [1] -0.16 | [2] 0.45 | [3] 0.068 | [4] 0.206 | [5] -0.21 | [6] -0.051 | [7] -0.092 | [8] -0.405 | [9] 0.175 | [10] -0.08 | [11] -0.095 | [12] -0.071 | [13] -0.691 | [14] 0.465 | [15] -0.178 | [16] 0.536 | [17] 0.028 | [18] 0.09 | [19] 0.184 | [20] -0.192

RRAGA (UniProt Q7L523)
inactive: [1] 0.318 | [2] 0.084 | [3] 0.055 | [4] 0.109 | [5] -0.053 | [6] -0.057 | [7] -0.046 | [8] 0.044 | [9] -0.126 | [10] -0.158 | [11] 0.058 | [12] -0.177 | [13] -0.033 | [14] -0.141 | [15] 0.672 | [16] 0.365 | [17] 0.051 | [18] 0.238 | [19] 0.01 | [20] 0.118

RPLP1 (UniProt P05386)
inactive: [1] -0.27 | [2] 0.684 | [3] 0.193 | [4] 0.321 | [5] -0.143 | [6] -0.369 | [7] -0.013 | [8] -0.243 | [9] 0.228 | [10] -0.114 | [11] -0.187 | [12] 0.082 | [13] -0.6 | [14] 0.504 | [15] -0.114 | [16] 0.351 | [17] 0.149 | [18] -0.057 | [19] 0.226 | [20] -0.106

RPL5 (UniProt P46777)
inactive: [1] -0.031 | [2] 0.323 | [3] 0.001 | [4] 0.163 | [5] -0.097 | [6] -0.19 | [7] 0.006 | [8] -0.215 | [9] 0.129 | [10] -0.062 | [11] -0.016 | [12] 0.016 | [13] -0.52 | [14] 0.315 | [15] -0.172 | [16] 0.249 | [17] -0.001 | [18] 0.012 | [19] 0.097 | [20] -0.092
